Experimental data published in US9174917B2, “Bexarotene analogs” (Arizona Board of Regents on Behalf of Arizona State …, priority 2010, dated 2015).
Some of these results come from one statement about several compounds together.

Tested on: Saccharomyces cerevisiae
Assay: Mitotic gene conversion mutagenicity/toxicity assay in Saccharomyces cerevisiae
Conditions: increasing concentrations

Q: How did the mutagenicity turn out when `C=C(c1cccc(C(=O)O)c1)c1cc2c(cc1C)C(C)(C)CCC2(C)C` [Compound 1] was run?
A: None of the compounds was mutagenic
